Data: article PMC10760973
Positions count from the first letter of the chain named. These are yes or no findings as the source states them, for the method shown. Binding seen in cells or lysates may run through a third protein. For part of these data: Binding can be weak; no strength is given. For part of these data: Sequences can lack the tags named with a protein.

Tests used:
[1] = molecular target: T1, WT CDKL5-3×FLAG (UniProt O76039); experiment: co-IP; anti-FLAG immunoprecipitation of WT or KD CDKL5-3×FLAG from reconstituted CDKL5-KO HeLa cells, mock-infected or infected with SINV/HA-capsid (MOI = 10, 8 hours), with vehicle (DMSO) or BafA1 (100 μM, 2 hours); immunoblot with anti-HA, anti-p62 and anti-FLAG
T1 sequence: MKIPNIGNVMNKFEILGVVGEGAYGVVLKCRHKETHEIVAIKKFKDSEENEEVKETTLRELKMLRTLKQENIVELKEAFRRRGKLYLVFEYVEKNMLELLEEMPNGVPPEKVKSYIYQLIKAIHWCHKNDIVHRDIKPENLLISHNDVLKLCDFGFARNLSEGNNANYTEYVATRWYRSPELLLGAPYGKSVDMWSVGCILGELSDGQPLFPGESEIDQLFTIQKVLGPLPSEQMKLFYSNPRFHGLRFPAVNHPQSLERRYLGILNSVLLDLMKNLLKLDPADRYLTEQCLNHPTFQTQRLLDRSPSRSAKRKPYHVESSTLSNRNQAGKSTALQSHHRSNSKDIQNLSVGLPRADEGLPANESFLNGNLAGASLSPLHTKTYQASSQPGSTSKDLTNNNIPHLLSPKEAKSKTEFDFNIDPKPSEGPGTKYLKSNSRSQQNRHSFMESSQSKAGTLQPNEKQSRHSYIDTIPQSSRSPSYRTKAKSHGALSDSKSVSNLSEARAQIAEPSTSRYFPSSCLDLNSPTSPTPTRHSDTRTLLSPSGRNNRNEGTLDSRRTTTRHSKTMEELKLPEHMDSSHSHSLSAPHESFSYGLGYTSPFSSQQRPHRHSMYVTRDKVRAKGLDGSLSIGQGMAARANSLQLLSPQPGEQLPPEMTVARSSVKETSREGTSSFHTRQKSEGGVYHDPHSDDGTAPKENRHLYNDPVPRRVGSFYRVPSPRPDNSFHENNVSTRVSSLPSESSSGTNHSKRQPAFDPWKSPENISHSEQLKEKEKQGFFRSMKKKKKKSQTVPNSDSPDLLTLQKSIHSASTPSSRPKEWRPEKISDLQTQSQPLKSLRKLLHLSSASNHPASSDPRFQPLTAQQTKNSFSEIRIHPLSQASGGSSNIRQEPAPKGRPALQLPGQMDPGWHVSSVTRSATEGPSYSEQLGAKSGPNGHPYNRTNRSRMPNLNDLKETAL

[2] = molecular target: T2, kinase-dead CDKL5^K42R-3×FLAG (UniProt O76039); experiment: as above
T2 sequence: T1 sequence with K42R

[3] = molecular target: SINV HA-tagged capsid (Sindbis virus); experiment: co-IP; HA-capsid immunoprecipitation (HA pull-down) from CDKL5-WT HeLa cells infected with SINV/HA-capsid (MOI = 10, 7 hours); immunoblot of endogenous CDKL5, p62 and HA-capsid

## SINV HA-tagged capsid (Sindbis virus)
[1]
  binding: no binding
[2]
  binding: no binding

B1: cyclin-dependent kinase-like 5 (endogenous, HeLa) (enzyme, UniProt O76039 1-960)
chain: T1 sequence
[3]
  binding: binds
